Laboratory results as given in the supplement of paper PMC12067093, “Discovery and optimisation of a covalent ligand for TRIM25 and its application to targeted protein ubiquitination” (Chemical Science, 2025).
The other results are listed elsewhere or left out.

The chains behind the UniProt entries cited, without tags or fusion partners. Where a name states a change or a piece, a line headed by the entry shows the natural chain unless it says otherwise.
UniProt P01100, whole entry: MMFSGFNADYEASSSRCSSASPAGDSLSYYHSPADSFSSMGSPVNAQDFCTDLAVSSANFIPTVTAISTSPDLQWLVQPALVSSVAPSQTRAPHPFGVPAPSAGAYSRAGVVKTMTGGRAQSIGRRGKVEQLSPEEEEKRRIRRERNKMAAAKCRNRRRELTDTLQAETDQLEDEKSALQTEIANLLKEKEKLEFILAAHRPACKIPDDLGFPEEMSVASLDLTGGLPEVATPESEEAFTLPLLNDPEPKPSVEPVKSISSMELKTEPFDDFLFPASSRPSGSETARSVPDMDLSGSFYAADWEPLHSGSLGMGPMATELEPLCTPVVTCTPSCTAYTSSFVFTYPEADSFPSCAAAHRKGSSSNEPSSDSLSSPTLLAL
UniProt Q13451: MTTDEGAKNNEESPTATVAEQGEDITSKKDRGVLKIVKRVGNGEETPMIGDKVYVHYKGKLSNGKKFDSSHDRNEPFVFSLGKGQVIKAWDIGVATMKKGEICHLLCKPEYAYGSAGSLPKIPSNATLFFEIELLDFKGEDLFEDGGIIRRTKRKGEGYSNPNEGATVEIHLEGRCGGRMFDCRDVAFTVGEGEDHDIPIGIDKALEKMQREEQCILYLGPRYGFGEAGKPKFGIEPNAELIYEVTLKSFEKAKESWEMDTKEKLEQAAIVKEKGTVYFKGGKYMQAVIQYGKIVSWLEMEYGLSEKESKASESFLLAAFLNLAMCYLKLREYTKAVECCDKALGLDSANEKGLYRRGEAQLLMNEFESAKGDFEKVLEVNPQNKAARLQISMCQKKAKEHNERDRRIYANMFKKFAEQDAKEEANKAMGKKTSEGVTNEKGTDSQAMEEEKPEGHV
UniProt Q13045: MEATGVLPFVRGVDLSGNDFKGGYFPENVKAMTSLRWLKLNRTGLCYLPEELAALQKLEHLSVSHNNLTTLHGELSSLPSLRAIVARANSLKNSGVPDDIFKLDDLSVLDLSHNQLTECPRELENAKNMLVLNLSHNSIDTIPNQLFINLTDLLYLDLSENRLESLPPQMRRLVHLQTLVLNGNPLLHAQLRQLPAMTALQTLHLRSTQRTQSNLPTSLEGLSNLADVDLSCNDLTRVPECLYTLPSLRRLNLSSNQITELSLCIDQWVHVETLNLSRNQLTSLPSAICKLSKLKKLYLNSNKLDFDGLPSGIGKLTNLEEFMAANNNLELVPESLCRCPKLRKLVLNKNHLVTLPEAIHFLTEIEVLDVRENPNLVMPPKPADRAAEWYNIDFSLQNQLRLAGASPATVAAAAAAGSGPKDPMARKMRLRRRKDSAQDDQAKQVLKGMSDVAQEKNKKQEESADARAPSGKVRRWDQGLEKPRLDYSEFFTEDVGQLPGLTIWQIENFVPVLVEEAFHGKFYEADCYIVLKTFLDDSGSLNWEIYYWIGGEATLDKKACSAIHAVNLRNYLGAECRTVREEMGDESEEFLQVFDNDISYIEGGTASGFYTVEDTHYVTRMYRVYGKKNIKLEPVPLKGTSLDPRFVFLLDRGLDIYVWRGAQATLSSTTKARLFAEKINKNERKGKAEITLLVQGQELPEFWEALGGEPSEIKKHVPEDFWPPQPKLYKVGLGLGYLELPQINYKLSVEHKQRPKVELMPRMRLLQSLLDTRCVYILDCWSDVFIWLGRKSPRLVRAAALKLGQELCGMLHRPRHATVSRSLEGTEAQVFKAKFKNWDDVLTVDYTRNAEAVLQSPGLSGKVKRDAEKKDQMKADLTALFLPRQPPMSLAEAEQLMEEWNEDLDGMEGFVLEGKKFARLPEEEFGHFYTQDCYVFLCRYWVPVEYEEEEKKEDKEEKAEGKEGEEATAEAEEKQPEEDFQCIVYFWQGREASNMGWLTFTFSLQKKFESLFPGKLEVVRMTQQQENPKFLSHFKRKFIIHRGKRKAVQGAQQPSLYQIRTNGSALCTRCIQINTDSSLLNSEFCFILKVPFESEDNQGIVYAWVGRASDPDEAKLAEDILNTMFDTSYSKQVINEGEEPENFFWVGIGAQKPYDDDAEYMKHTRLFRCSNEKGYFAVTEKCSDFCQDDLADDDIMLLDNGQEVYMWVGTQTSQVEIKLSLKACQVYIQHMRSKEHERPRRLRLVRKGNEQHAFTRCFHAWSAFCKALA
UniProt Q9UQC2, whole entry, looked up: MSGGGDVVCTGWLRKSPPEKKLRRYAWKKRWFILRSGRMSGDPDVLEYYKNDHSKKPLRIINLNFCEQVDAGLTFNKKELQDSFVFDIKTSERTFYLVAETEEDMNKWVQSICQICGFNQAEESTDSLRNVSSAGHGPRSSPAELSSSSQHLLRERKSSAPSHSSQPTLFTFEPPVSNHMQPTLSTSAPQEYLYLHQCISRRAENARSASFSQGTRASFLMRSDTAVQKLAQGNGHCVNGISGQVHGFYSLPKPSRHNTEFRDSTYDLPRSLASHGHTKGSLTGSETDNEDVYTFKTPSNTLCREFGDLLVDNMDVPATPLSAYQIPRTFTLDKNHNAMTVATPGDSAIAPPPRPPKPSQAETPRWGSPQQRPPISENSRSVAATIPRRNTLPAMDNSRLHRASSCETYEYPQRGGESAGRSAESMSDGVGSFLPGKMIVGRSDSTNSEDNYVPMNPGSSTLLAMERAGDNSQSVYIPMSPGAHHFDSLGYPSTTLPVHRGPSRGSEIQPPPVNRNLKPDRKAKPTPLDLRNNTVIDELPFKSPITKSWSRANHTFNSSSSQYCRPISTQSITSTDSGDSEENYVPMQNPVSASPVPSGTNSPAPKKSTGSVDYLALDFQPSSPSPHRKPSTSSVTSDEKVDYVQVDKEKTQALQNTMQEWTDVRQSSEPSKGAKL
UniProt O95302: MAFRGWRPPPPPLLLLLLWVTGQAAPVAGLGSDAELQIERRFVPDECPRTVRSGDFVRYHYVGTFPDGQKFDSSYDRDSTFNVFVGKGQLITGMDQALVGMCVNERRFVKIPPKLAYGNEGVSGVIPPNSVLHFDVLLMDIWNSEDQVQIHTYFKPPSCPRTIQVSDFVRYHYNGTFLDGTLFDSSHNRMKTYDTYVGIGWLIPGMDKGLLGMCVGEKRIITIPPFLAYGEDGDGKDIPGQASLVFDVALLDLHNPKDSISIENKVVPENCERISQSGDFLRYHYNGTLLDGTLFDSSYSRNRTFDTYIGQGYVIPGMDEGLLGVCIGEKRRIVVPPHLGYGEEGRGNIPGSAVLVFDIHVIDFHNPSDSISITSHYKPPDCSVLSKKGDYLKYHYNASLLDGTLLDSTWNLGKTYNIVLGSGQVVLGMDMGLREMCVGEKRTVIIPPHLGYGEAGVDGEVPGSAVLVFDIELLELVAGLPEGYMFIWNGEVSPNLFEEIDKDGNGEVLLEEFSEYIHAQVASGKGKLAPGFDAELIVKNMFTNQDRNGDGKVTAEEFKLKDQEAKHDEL
UniProt Q96CP2: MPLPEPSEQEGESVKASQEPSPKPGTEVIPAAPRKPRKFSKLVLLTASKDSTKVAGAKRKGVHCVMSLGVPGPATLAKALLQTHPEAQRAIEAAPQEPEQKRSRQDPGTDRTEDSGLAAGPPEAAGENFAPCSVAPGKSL
UniProt P51114, whole entry, looked up: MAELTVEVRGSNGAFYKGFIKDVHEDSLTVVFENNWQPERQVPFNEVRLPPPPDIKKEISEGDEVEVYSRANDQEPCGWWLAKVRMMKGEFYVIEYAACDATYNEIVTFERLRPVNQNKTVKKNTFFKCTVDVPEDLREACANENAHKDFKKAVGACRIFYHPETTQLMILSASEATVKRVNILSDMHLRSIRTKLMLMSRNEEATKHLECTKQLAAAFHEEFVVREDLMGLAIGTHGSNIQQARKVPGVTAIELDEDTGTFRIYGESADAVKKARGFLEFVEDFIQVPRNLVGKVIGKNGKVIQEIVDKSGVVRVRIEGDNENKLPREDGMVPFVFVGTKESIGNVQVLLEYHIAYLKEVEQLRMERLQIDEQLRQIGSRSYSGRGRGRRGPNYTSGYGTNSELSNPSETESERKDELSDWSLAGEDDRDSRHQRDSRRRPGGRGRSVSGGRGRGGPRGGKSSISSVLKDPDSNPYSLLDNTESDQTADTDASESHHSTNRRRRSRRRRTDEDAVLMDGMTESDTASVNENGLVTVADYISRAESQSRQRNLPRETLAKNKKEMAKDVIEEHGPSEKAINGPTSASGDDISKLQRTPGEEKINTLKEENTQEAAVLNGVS
UniProt Q9BZ67: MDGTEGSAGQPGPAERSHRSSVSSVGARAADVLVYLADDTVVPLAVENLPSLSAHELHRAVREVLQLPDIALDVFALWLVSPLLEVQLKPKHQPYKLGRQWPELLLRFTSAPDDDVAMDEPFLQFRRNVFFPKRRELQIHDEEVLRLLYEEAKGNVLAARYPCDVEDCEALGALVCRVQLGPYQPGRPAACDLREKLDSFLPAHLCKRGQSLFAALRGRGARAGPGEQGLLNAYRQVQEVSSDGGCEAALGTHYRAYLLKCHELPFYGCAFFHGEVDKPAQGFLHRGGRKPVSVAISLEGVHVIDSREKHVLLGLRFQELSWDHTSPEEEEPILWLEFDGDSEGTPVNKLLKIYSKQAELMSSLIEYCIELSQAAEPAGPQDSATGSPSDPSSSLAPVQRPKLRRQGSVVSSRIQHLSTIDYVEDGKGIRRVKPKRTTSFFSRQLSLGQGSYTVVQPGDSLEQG
UniProt Q8N3X1: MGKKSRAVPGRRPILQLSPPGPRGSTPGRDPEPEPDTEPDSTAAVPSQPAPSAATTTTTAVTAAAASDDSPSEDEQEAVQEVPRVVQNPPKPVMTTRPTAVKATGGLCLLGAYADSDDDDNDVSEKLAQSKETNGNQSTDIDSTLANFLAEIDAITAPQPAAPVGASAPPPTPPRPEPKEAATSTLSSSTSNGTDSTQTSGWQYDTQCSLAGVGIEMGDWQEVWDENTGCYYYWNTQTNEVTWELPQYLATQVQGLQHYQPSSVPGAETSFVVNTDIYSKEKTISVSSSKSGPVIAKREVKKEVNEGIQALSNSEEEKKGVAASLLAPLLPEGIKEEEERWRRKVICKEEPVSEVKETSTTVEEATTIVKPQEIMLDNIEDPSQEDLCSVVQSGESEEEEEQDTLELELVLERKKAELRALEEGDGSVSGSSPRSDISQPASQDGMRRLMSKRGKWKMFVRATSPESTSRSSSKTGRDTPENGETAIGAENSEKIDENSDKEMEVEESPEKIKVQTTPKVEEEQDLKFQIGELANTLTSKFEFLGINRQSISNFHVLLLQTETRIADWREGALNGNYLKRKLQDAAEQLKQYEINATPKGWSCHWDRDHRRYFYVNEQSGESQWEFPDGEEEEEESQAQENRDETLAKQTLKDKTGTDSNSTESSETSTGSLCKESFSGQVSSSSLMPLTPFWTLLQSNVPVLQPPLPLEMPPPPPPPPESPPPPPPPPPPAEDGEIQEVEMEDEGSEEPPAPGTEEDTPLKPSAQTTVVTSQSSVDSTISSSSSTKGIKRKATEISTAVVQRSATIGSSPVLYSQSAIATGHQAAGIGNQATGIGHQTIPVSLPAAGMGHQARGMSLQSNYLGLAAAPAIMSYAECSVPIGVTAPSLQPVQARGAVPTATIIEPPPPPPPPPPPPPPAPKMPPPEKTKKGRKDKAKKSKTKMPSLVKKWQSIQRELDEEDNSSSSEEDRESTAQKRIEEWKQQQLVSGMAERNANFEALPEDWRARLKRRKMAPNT
UniProt P51570: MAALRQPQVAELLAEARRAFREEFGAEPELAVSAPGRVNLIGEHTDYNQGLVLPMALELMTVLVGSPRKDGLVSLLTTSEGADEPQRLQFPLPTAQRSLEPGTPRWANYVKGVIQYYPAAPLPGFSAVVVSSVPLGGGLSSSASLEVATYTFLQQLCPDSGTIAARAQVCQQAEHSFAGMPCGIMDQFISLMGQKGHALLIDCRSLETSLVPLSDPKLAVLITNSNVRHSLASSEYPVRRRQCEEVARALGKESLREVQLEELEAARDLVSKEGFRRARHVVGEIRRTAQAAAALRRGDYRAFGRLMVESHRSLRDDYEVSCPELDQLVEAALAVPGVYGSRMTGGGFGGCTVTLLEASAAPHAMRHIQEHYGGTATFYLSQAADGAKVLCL
UniProt Q13643: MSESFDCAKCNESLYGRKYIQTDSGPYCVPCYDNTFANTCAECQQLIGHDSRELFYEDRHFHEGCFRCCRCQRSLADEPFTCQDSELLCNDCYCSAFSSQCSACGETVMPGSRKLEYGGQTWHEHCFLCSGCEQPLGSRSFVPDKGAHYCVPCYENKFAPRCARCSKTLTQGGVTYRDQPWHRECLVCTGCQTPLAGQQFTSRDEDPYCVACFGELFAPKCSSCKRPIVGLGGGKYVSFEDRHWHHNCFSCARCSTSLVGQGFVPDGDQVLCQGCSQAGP
UniProt Q13642: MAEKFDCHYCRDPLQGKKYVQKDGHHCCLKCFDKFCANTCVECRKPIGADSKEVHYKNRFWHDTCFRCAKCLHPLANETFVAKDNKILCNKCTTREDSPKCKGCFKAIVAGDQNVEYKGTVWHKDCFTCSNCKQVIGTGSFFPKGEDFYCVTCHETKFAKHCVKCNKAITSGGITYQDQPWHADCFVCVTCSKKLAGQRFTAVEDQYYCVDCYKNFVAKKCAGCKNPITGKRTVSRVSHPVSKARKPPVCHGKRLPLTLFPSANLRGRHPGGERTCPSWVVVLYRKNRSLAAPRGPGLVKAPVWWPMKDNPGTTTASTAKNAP

Compound: Cc1cc(ccc1-c1ccccc1)C(=O)N1CCCN(CC1)C(=O)CCl [compound 10]
Assay: probe-labelled cysteine peptide fold change vs DMSO (competition) (log2 fold change); higher = less target engagement (more negative = stronger competition)
Settings: THP-1, incubation time: 4 h
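Note: competitive profiling in live THP-1 cells: cysteine peptides tagged with an iodoacetamide desthiobiotin (IA-DTB) probe, intensity after compound treatment relative to DMSO-treated cells.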

| Target | probe-labelled cysteine peptide fold change (10 µM) | probe-labelled cysteine peptide fold change (50 µM) |
| --- | --- | --- |
| FLNB_O75369_1876_DGTCTVTYLPTLPGDYSILVK (UniProt O75369) | 0.159 | 0.0655 |
| FOS_P01100_204_EKLEFILAAHRPACK (UniProt P01100) | 0.0955 | 1.53 |
| FKBP5_Q13451_107_GEICHLLCKPEYAYGSAGSLPK (UniProt Q13451) | 0.0721 | -0.164 |
| FLII_Q13045_46_TGLCYLPEELAALQK (UniProt Q13045) | 0.0972 | 0.0734 |
| GAB2_Q9UQC2_237_LAQGNGHCVNGISGQVHGFYSLPK (UniProt Q9UQC2) | -0.151 | -0.33 |
| FKBP9_O95302_47_FVPDECPR (UniProt O95302) | -0.137 | -0.0897 |
| FLYWCH2_Q96CP2_132_TEDSGLAAGPPEAAGENFAPCSVAPGK (UniProt Q96CP2) | -0.348 | 0.15 |
| FXR1_P51114_129_CTVDVPEDLR (UniProt P51114) | 0.0929 | 0.0383 |
| FRMD8_Q9BZ67_206_LDSFLPAHLCK (UniProt Q9BZ67) | -0.0859 | -0.347 |
| FNBP4_Q8N3X1_673_TGTDSNSTESSETSTGSLCK (UniProt Q8N3X1) | -0.132 | -0.451 |
| FLNB_O75369_1326_VAVTEGCQPSR (UniProt O75369) | -0.107 | 0.0542 |
| FLNB_O75369_991_VVPCLVTPVTGR (UniProt O75369) | 0.0447 | 0.179 |
| FTSJ3_Q8IY81_293_VCCQDIR (UniProt Q8IY81) | 0.217 | -0.481 |
| FLII_Q13045_560_ACSAIHAVNLR (UniProt Q13045) | 0.105 | -0.0246 |
| GALK1_P51570_243_QCEEVAR (UniProt P51570) | -0.112 | -0.00408 |
| FXR2_P51116_151_EACSNENVHK (UniProt P51116) | 0.178 | 0.443 |
| FTO_Q9C0B1_392_CTDWWCQPMAQLEALWK (UniProt Q9C0B1) | -0.031 | -0.231 |
| FTL_P02792_127_TDPHLCDFLETHFLDEEVK (UniProt P02792) | 0.41 | 0.216 |

In a second layout: entries from further up.
Target	probe-labelled cysteine peptide fold change (10 µM)	probe-labelled cysteine peptide fold change (50 µM)
FLII_Q13045_46_TGLCYLPEELAALQK (UniProt Q13045)	0.0972	0.0734
GAB2_Q9UQC2_237_LAQGNGHCVNGISGQVHGFYSLPK (UniProt Q9UQC2)	-0.151	-0.33
FKBP9_O95302_47_FVPDECPR (UniProt O95302)	-0.137	-0.0897
FLYWCH2_Q96CP2_132_TEDSGLAAGPPEAAGENFAPCSVAPGK (UniProt Q96CP2)	-0.348	0.15
FXR1_P51114_129_CTVDVPEDLR (UniProt P51114)	0.0929	0.0383
FRMD8_Q9BZ67_206_LDSFLPAHLCK (UniProt Q9BZ67)	-0.0859	-0.347
FNBP4_Q8N3X1_673_TGTDSNSTESSETSTGSLCK (UniProt Q8N3X1)	-0.132	-0.451
FLNB_O75369_1326_VAVTEGCQPSR (UniProt O75369)	-0.107	0.0542

More records

| Target | probe-labelled cysteine peptide fold change (10 µM) | probe-labelled cysteine peptide fold change (50 µM) |
| --- | --- | --- |
| FHL3_Q13643_251_HWHHNCFSCAR (UniProt Q13643) | 0.102 | -0.0572 |
| FNDC3B_Q53EP0_966_LECAAAGPQSLK (UniProt Q53EP0) | -0.104 | -0.0104 |
| FHL1_Q13642_7+10_FDCHYCR (UniProt Q13642) | -0.0387 | -0.34 |
| FKBP5_Q13451_215_EEQCILYLGPR (UniProt Q13451) | -0.119 | -0.143 |
| FHL3_Q13643_10_CNESLYGR (UniProt Q13643) | 0.121 | -0.0227 |
| FLII_Q13045_982_EGEEATAEAEEKQPEEDFQCIVYFWQGR (UniProt Q13045) | 0.194 | 0.216 |
| FSCN1_Q16658_61_QIWTLEQPPDEAGSAAVCLR (UniProt Q16658) | -0.00757 | 0.149 |
| FRA10AC1_Q70Z53_175_GQFFCGNK (UniProt Q70Z53) | -0.0818 | -0.0768 |
| FN1_P02751_141_CHEGGQSYK (UniProt P02751) | -0.311 | -0.66 |
| FRY_Q5TBA9_869_HCPTALSYAWPYAFTR (UniProt Q5TBA9) | 0.195 | 0.221 |
| FRYL_O94915_1042_CHFSALVANIIQNVPVHQR (UniProt O94915) | 0.125 | -0.0111 |
| FHL1_Q13642_43_FCANTCVECR (UniProt Q13642) | 0.103 | -0.023 |
| FLNA_P21333_2378_VHSPSGALEECYVTEIDQDK (UniProt P21333) | -0.759 | -0.549 |
| GALK1_P51570_203_GHALLIDCR (UniProt P51570) | 0.226 | 0.303 |
| FHL1_Q13642_65_FWHDTCFR (UniProt Q13642) | 0.174 | -0.00101 |
| FKRP_Q9H9S5_191_CDALDGDAVVLLR (UniProt Q9H9S5) | -0.321 | -0.0492 |
| FN1_P02751_386_QDGHLWCSTTSNYEQDQK (UniProt P02751) | -0.186 | -0.163 |
